{
  "source": "patent US9597369B2",
  "about": "“Inhibitors of atypical protein kinase C and their use in treating hedgehog pathway-dependent cancers” (The Board of Trustees of the Leland Stanford Junior …, priority 2011, dated 2017)",
  "key": {"ASZ001 cells [1]": {"system": "ASZ001 cells", "format": "cell-based, mouse", "details": "MTT assay, FIG. 1i", "description": "Primary mouse dermal cells were isolated as previously described (Bershteyn, M., Atwood, S. X., Woo, W.-M., Li, M. & Oro, A. E. MIM and cortactin antagonism regulates ciliogenesis and hedgehog signaling. Dev. Cell 19, 270-283 (2010)). Dermal cells were grown in Amniomax media containing supplement and antibiotics (Invitrogen). ASZ001 cells were grown in 154CF media containing 2% chelated FBS, HKGS supplement, and antibiotics (Invitrogen). Keratinocytes (HPA Culture Collections) were grown in CnT-07 media containing supplement and 0.07 mM CaCl2 (CelINTec). Cells were sterum-starved between 24-48 hrs to induce ciliogenesis. MTT cell proliferation assay was performed using manufacturer's protocol from Invitrogen.\n(§1) Subconfluent ASZ001 cells were serum-starved and inhibitors added for 48 hrs prior to MTT assay and 24 hrs prior to visualize cilia and assay Gli target gene induction. Stability assays performed with ASZ001 preincubated with PSI for one hour before 20 ug/ml cyclohexamide addition at various time points."}, "BCC cells": {"system": "BCC cells", "test": "Primary cilia in BCC cells", "format": "cell-based, mouse", "details": "PSI-treated BCC cells, FIG. 1h,j"}, "ASZ001 cells [2]": {"system": "ASZ001 cells", "test": "3' end RNA sequencing of inhibitor-treated BCC cells", "format": "cell-based, mouse", "details": "inhibitor 24 hrs, FIG. 3a", "description": "(§2) Aligned 36 bp raw reads with Bowtie using the NCBI37/mm9 reference genome. Differential expression analysis was performed on the 3′ exon with the Cufflinks suite using mouse RefSeq gene predictions as a reference transcriptome. Annotated coding transcripts were filtered for significant expression by a RPKM of 25 in at least one sample set. […] Transcripts were validated using Brilliant II SYBR Green qRT-PCR Master Mix Kit (Agilent Technologies) with primers listed in the following table. Two-tail p-value between our gene sets and other gene sets calculated using Fisher's Exact Test."}, "Smo resistant cell lines": {"system": "Smo resistant cell lines", "test": "Cell proliferation of Smo-resistant BCC cell lines", "format": "cell-based, mouse", "details": "lines resistant to high levels of Sant-1, FIG. 4e"}, "Gli1 [3]": {"system": "Gli1", "test": "Flag:Gli1 chromatin immunoprecipitation in BCC cells", "format": "cell-based, mouse", "details": "BCC cells expressing Flag:Gli1, inhibitor 24 hrs"}, "allografted BCC tumors": {"system": "allografted BCC tumors", "format": "in vivo, mouse", "details": "topical", "from_the_text": "All mouse studies were approved by and conformed to the policies and regulations of the Institutional Animal Care and Use Committees at Stanford University and the Children's Hospital Oakland Research Institute. Ptch1+/−, K14CreER2, p53flox/flox mice were used to develop BCC tumors. Tumors were allografted as previously described (Wang, G. Y. et al. Establishment of Murine Basal Cell Carcinoma Allografts: A Potential Model for Preclinical Drug Testing and for Molecular Analysis. Journal of Investigative Dermatology (2011).doi:10.1038/jid.2011.204). Nine tumors from three mice were treated topically twice daily with 0.8 mg/kg PSI dissolved in DMSO for at least 32 days. Ten tumors from three mice were treated with DMSO twice daily as a control. Mice were euthanized and tumors harvested depending on tumor size that exceeded our animal care guidelines. We measured the change in tumor size with calipers every three to four days. Pairwise comparisons between DMSO and PSI treatment were done using a two-sided unpaired t test with GraphPad Prism software."}, "Gli1 [4]": {"system": "Gli1", "test": "Gli1 stability assay with cyclohexamide", "format": "cell-based, mouse", "details": "BCC cells treated with cyclohexamide and PSI, FIG. 9a"}, "Hh signaling": {"system": "Hh signaling", "test": "Hh signaling (gli1 mRNA, Gli target gene induction) in BCC cells", "format": "cell-based, mouse", "description": "as §1, §2"}, "IVT human Gli1": {"system": "IVT human Gli1", "test": "Electrophoretic mobility shift assay of Gli1 DNA binding", "format": "biochemical", "details": "in vitro translation mixture treated with PSI to inhibit endogenous aPKC"}},
  "note": "At least one peptide structure holds a part that was inferred or is arguable (an end, a ring closure or a residue). Peptide text beside a SMILES is read from it. * marks the point of attachment. Myristoyl = CCCCCCCCCCCCCC(=O)*",
  "data": [
    {"compound": "CCCCCCCCCCCCCC(=O)N[C@@H](CO)C(=O)N[C@H](C(=O)N[C@@H](Cc1ccc(O)cc1)C(=O)N[C@@H](CCCNC(=N)N)C(=O)N[C@@H](CCCNC(=N)N)C(=O)NCC(=O)N[C@@H](C)C(=O)N[C@@H](CCCNC(=N)N)C(=O)N[C@@H](CCCNC(=N)N)C(=O)N[C@@H](Cc1c[nH]c2ccccc12)C(=O)N[C@@H](CCCNC(=N)N)C(=O)N[C@@H](CCCCN)C(=O)N[C@@H](CC(C)C)C(=O)N[C@@H](Cc1ccc(O)cc1)C(=O)O)[C@@H](C)CC", "note": "[PSI] (Myristoyl-SIYRRGARRWRKLY-OH)", "values": [
      {"measurement": "cell growth in BCC cells", "setting": "ASZ001 cells [1]", "result": "dose-dependent inhibition of cell growth"},
      {"measurement": "Primary cilia reduced", "setting": "BCC cells", "result": 50, "unit": "%"},
      {"measurement": "transcripts changed two-fold or greater compared to control", "setting": "ASZ001 cells [2]", "result": 4762, "unit": "transcripts"},
      {"measurement": "cell proliferation of Smo-resistant BCC cell lines", "setting": "Smo resistant cell lines", "result": "dramatically reduced cell proliferation"},
      {"measurement": "Gli1 association with chromatin at Gli1 targets", "setting": "Gli1 [3]", "result": "dramatically reduced the association with chromatin"},
      {"measurement": "gli1 mRNA in allografted BCCs", "setting": "allografted BCC tumors; increasing concentrations, FIG. 4a", "result": "reduced"},
      {"measurement": "Tumor size", "setting": "allografted BCC tumors; intermediate concentrations, compared to control treatment, FIG. 4b", "result": "suppressed"},
      {"measurement": "Cell proliferation in tumors", "setting": "allografted BCC tumors; FIG. 4d", "result": "severely reduced"},
      {"measurement": "apoptosis by TUNEL staining in tumors", "setting": "allografted BCC tumors; FIG. 4d", "result": "dramatically increased"},
      {"measurement": "Gli1 stability", "setting": "Gli1 [4]", "result": "modestly increased Gli1 stability"},
      {"measurement": "SAG-induced activation of gli1 transcription", "setting": "Hh signaling; BCC cells with SAG, FIG. 3d", "result": "prevent SAG-induced activation in a dose-dependent manner"},
      {"measurement": "gli1 or apkc mRNA with aPKC knockdown in combination with PSI", "setting": "Hh signaling; BCC cells with aPKC knocked down, FIG. 1k", "result": "no additional activity"},
      {"measurement": "Hh signaling (gli1 mRNA) in BCC cells", "setting": "Hh signaling; BCC cells, FIG. 1g", "result": "inhibited Hh signaling in BCC cells in a dose-dependent manner"},
      {"measurement": "Gli1 binding to Gli1 target DNA", "setting": "IVT human Gli1", "result": "significantly less Gli1 binding"}
    ]}
  ]
}
